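The compound by itself is applied to MRP-overexpressing cells and the share of cells still alive is read; the cell line is not named here. Each compound is tested alone at 10 µM. The number is percent cell viability with the compound alone; higher viability means the compound is less active, or less toxic, by itself.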

Values are in %. How 0% and 100% were set is not given here. Common to all entries: measured here: viability series, compound alone; at 10 µM. Part of the compounds only, not a random draw; the main read-out is not listed here.

- O=C(CSc1nc2c(c(=O)n1-c1ccccc1)SCC2)N1CCN(c2ccccc2)CC1 | viability 91.37%
- O=C(c1ccc(S(=O)(=O)N2CCCC2)cc1)N1CCN(Cc2ccc3c(c2)OCO3)CC1 | viability 85.86%
- Cn1c(=O)c2c(nc(SCCCC#N)n2Cc2c(F)cccc2Cl)n(C)c1=O | viability 66.47%
- COc1cc(C)nc(-n2nc(C)cc2OC)n1 | viability 92.75%
- Cn1c(=O)c(NCCO)c2c3c(cccc31)C(=O)c1ccccc1-2 | viability 79.66%
- CCOC(=O)c1cc(CC)sc1NC(=O)Cc1ccccc1 | viability 96.34%
- Cn1c(=N)c(S(=O)(=O)c2ccccc2)cc2c(=O)n3ccccc3nc21 | viability 79.37%
- Cn1nnnc1SCC(=O)Nc1ccccc1N1CCOCC1 | viability 97.9%
- CC1CN(c2nc3c(c(=O)n(Cc4ccc(Cl)cc4)c(=O)n3C)n2C)CC(C)O1 (stereo unspecified) | viability 86.02%
- Cc1ccc(C)c(Cn2nnc3c(=O)[nH]c(C4CCCN(C(=O)C5CCCCC5)C4)nc32)c1 (stereo unspecified) | viability 72.41%
- Cc1c(Cl)cccc1Nc1ccccc1C(=O)O | viability 103%
- C=CCNc1nc2c(c(=O)n(C)c(=O)n2C)n1Cc1ccc(F)cc1 | viability 99.01%
- CCc1nnc(NC(=O)CSc2nnc(C3CCCCC3)n2-c2cccc(Cl)c2)s1 | viability 73.35%
- CCOC(=O)N1CCC(n2c(SCC(=O)NCc3ccco3)nc3ccsc3c2=O)CC1 | viability 83.77%
- CCN1CCN(c2nc(-c3cccnc3)nc3ccccc23)CC1 | viability 98.21%
- CN1CCN(c2nc(-c3ccccn3)nc3ccccc23)CC1 | viability 96.12%
- CCCC1O[C@@H]2CC3C4CCC5=CC(=O)C=C[C@]5(C)C4C(OC(C)=O)C[C@]3(C)[C@]2(C(=O)COC(C)=O)O1 (stereo partly specified) | viability 94.93%
- Oc1ccc(/C=C/c2cc(O)cc(O)c2)cc1 | viability 91.76%
- Cn1c(=O)[nH]c(=O)c2c1nc(N1CCCCCC1)n2Cc1cccc2ccccc12 | viability 89.94%
- Cc1nc(N2CCN(S(=O)(=O)c3cccc4nonc34)CC2)c2c3c(sc2n1)CCCC3 | viability 93.85%
- O=C(NCc1ccc(N2CCCC2=O)cc1)c1cn(CCc2ccccc2)nn1 | viability 92.35%
- Cn1c(N2CCN(c3ccccn3)CC2)nc2c1c(=O)n(Cc1ccc(Cl)cc1)c(=O)n2C | viability 105.6%
- C=CCSc1nnc2nc3c(nn12)c1cc(C)ccc1n3CC=C | viability 71.17%
- CC1CCCN(CC(=O)Nc2ccc(S(=O)(=O)N3CCCCC3)cc2)C1 (stereo unspecified) | viability 88.81%
- CCCCc1c(C)c(C#N)c2nc3ccccc3n2c1Nc1c(C)n(C)n(-c2ccccc2)c1=O | viability 78.35%
- Cc1cc(-c2ccco2)n(-c2ccccc2)n1 | viability 78.83%
- CC1CN(c2nc3c(c(=O)n(C)c(=O)n3C)n2Cc2c(F)cccc2Cl)CC(C)O1 (stereo unspecified) | viability 88.35%
- CC(C)CC1NC2(C(=O)N(C)c3ccccc32)C2C(=O)N(C(C)C)C(=O)C12 (stereo unspecified) | viability 91.71%
- Cc1ccccc1Cn1c(CN2CCN(c3ccc(F)cc3)CC2)nc2c1c(=O)n(C)c(=O)n2C | viability 73.13%
- COc1ccc(S(=O)(=O)Cc2ccc(C(=O)N3CCN(C4CCCCC4)CC3)o2)cc1 | viability 93.02%
- CCOC(=O)c1c(NC(=O)OC)sc(C(=O)N(CC)CC)c1C | viability 99.82%
- Cn1c(=O)c2c(nc(-n3ccnc3)n2Cc2ccccc2)n(C)c1=O | viability 99.1%
- O=C(O)c1cccnc1Nc1cccc(C(F)(F)F)c1 | viability 102.7%
- COc1ccc2c(Cl)c(C(=O)NCCCn3ccnc3)sc2c1 | viability 105.2%
- C=CCn1c(=O)c2ccccc2n2c(SCc3nnc(-c4ccccc4Br)o3)nnc12 | viability 83.58%
- O=C(Oc1ccc(N(Cc2cccs2)C2=NS(=O)(=O)c3ccccc32)cc1)c1ccc(Cl)cc1 | viability 96.23%
- COc1ccc2c(Cl)c(C(=O)NCCCn3ccnc3)sc2c1Cl | viability 94.34%
- c1cnc2ccc(C(c3nnnn3C3CCCC3)N3CCN(c4nc5ccccc5s4)CC3)cc2c1 (stereo unspecified) | viability 88.63%
- Cn1c(=O)c2c(nc(N3CCN(Cc4ccccc4)CC3)n2CCCc2ccccc2)n(C)c1=O | viability 83.66%
- COc1ccc2c(c1)c(CC(=O)OCC(=O)O)c(C)n2C(=O)c1ccc(Cl)cc1 | viability 104.5%
- Cc1cnc(NC(=O)C2=C(O)c3ccccc3S(=O)(=O)N2C)s1 | viability 100.1%
- O=C(CSc1nnc(C2CC2)n1Cc1ccccc1)N1CCN(S(=O)(=O)c2ccccc2)CC1 | viability 82.96%
- CSc1nnc2c3c4c(sc3c(=O)n(-c3ccccc3)n12)CC(C)(C)OC4 | viability 96.21%
- Cn1c(=O)n(Cc2ccccc2)c(=O)c2c1nc(NCC1CCCO1)n2Cc1ccccc1 (stereo unspecified) | viability 88.74%
- CCOC(=O)c1cnc2ccc(OCC)cc2c1N1CCN(c2ccccc2)CC1 | viability 75.09%
- C=C(C)Cn1c(N2CCC(Cc3ccccc3)CC2)nc2c1c(=O)[nH]c(=O)n2C | viability 79.17%
- Cc1ccccc1N=C(NOCc1ccccc1)c1nonc1N | viability 92.11%
- CCC(Oc1ccccc1)C(=O)Nc1ccc(S(=O)(=O)N2CCOCC2)cc1 (stereo unspecified) | viability 80.27%
- Cc1nc(SCC(=O)Nc2c(C)nn(C)c2C)c2cnn(-c3ccccc3)c2n1 | viability 90.72%
- CCCNc1nc2c(c(=O)n(C)c(=O)n2C)n1Cc1cccc(C)c1 | viability 104.4%
- O=C(OCCN(C1=NS(=O)(=O)c2ccccc21)c1ccc(Cl)cc1)c1ccco1 | viability 79.7%
- O=C(O)CCC(=O)c1ccc(-c2ccccc2)cc1 | viability 99.01%
- Cc1ccc(N2CCN(c3ccc(C)cc3)C2c2ccncc2)cc1 | viability 107.2%
- Cc1ccc2c(Cl)c(C(=O)NCCCn3ccnc3)sc2c1 | viability 102.1%
- O=C(Cc1cccs1)N1CCCC(c2nc3c(nnn3Cc3cccc(Cl)c3)c(=O)[nH]2)C1 (stereo unspecified) | viability 89.19%
- CCOC(=O)N1CCN(C(=O)CSc2nc3c(c(=O)n2-c2ccccc2OC)SCC3)CC1 | viability 80.91%
- CN1CCN(c2nc(-c3cccnc3)nc3ccccc23)CC1 | viability 98.54%
- CCCCn1c(N2CCC(Cc3ccccc3)CC2)nc2c1c(=O)[nH]c(=O)n2C | viability 86.63%
- Cc1ccc(C)c(N2CCN(C(=O)C3CCN(S(=O)(=O)c4cccc5nsnc45)CC3)CC2)c1 | viability 80.81%
- Cc1ccc(C2C3CN(C(C)C)CC=C3C(C#N)=C(N)C2(C#N)C#N)cc1 (stereo unspecified) | viability 84.25%
- COc1ccc(NC(=O)CN2CCN(C3c4ccccc4-c4ccccc43)CC2)c(OC)c1 | viability 76.82%
- Cc1cc(=O)oc2cc(OCc3ccc(S(=O)(=O)N4CCOCC4)cc3)ccc12 | viability 81.32%
- CCOC(=O)C1(c2ccccc2)NC(c2ccccc2C)C2C(=O)N(c3ccc4c(c3)OCO4)C(=O)C21 (stereo unspecified) | viability 62.8%

For reference, 6 entries once more:

CSc1nnc2c3c4c(sc3c(=O)n(-c3ccccc3)n12)CC(C)(C)OC4 read viability 96.21%.
Cc1cc(-c2ccco2)n(-c2ccccc2)n1 read viability 78.83%.
CC1CCCN(CC(=O)Nc2ccc(S(=O)(=O)N3CCCCC3)cc2)C1 (stereo unspecified) read viability 88.81%.
Cn1c(=O)c2c(nc(SCCCC#N)n2Cc2c(F)cccc2Cl)n(C)c1=O read viability 66.47%.
Cc1ccc(C)c(Cn2nnc3c(=O)[nH]c(C4CCCN(C(=O)C5CCCCC5)C4)nc32)c1 (stereo unspecified) read viability 72.41%.
Cc1ccc(C2C3CN(C(C)C)CC=C3C(C#N)=C(N)C2(C#N)C#N)cc1 (stereo unspecified) read viability 84.25%.

The results are deposited in PubChem (AID741; SRMLSC, 2007).